Data as given in PubChem BioAssay AID1259405 (NCATS, 2018).
Assay: 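Silenced genes that increase secreted GFP made by CHO cells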 (primary screen). Cell system: Chinese hamster CHO-K1 ovary cells with stable secreted eGFP expression. Reagent: single siRNA against mouse genes, 0.8 pmol siRNA per well (2 µl of 400 nM stock). Duration: 3 days. Read-out: 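Per-well intracellular GFP measured by laser scanning cytometry, plus viability from ATP luminescence, each relative to plate median of non-targeting control wells, in %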. Scale: GFP, % of control: higher = more GFP per well, higher productivity; viability (ATP), % of control: higher = more viable cells (more ATP). Call rule: 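a knock-down is called active if GFP reaches 120% or more of non-targeting control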.
The deposit covers about 50,000 reagents; below is a random part of them. Over the whole deposit, about 4,000 (8%) are marked active. 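Mouse siRNA library applied to hamster cells; one well for each siRNA.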 Entries without a mark were called inactive. Reagents against one gene are numbered here.

Ccl25 (C-C motif chemokine ligand 25) #1 — GFP, % of control = 78.5; viability (ATP), % of control = 76.3
Ccl25 (C-C motif chemokine ligand 25) #2 — GFP, % of control = 61.2; viability (ATP), % of control = 88.1
Cnksr3 (Cnksr family member 3) #1 — GFP, % of control = 87.4; viability (ATP), % of control = 76.6
Cnksr3 (Cnksr family member 3) #2 — GFP, % of control = 136 (active); viability (ATP), % of control = 119
Prlhr (prolactin releasing hormone receptor) #1 — GFP, % of control = 97.9; viability (ATP), % of control = 74.6
Prlhr (prolactin releasing hormone receptor) #2 — GFP, % of control = 73.3; viability (ATP), % of control = 55.9
Prlhr (prolactin releasing hormone receptor) #3 — GFP, % of control = 55.4; viability (ATP), % of control = 47.9
Zc2hc1c (zinc finger, C2HC-type containing 1C) #1 — GFP, % of control = 92.2; viability (ATP), % of control = 85.2
Zc2hc1c (zinc finger, C2HC-type containing 1C) #2 — GFP, % of control = 90.8; viability (ATP), % of control = 59.5
Zc2hc1c (zinc finger, C2HC-type containing 1C) #3 — GFP, % of control = 102; viability (ATP), % of control = 121
2810407A14Rik (RIKEN cDNA 2810407A14 gene) #1 — GFP, % of control = 65.8; viability (ATP), % of control = 68.4
2810407A14Rik (RIKEN cDNA 2810407A14 gene) #2 — GFP, % of control = 83.1; viability (ATP), % of control = 110
2810407A14Rik (RIKEN cDNA 2810407A14 gene) #3 — GFP, % of control = 58.7; viability (ATP), % of control = 54.7

3 neighbouring entries from above, quoted:
Ccl25 (C-C motif chemokine ligand 25) #2 — GFP, % of control = 61.2; viability (ATP), % of control = 88.1
Cnksr3 (Cnksr family member 3) #1 — GFP, % of control = 87.4; viability (ATP), % of control = 76.6
Cnksr3 (Cnksr family member 3) #2 — GFP, % of control = 136 (active); viability (ATP), % of control = 119

The list goes on:
Tescl (tescalcin-like) #1 — GFP, % of control = 79.6; viability (ATP), % of control = 34.4
Tescl (tescalcin-like) #2 — GFP, % of control = 61; viability (ATP), % of control = 92
Tescl (tescalcin-like) #3 — GFP, % of control = 86.6; viability (ATP), % of control = 74.5
Or2g25 (olfactory receptor family 2 subfamily G member 25) #1 — GFP, % of control = 146 (active); viability (ATP), % of control = 68
Or2g25 (olfactory receptor family 2 subfamily G member 25) #2 — GFP, % of control = 93.1; viability (ATP), % of control = 86
Or2g25 (olfactory receptor family 2 subfamily G member 25) #3 — GFP, % of control = 74.2; viability (ATP), % of control = 85.9
Cenph (centromere protein H) #1 — GFP, % of control = 61.2; viability (ATP), % of control = 82.1
Cenph (centromere protein H) #2 — GFP, % of control = 73; viability (ATP), % of control = 80.3
Cenph (centromere protein H) #3 — GFP, % of control = 87.8; viability (ATP), % of control = 86.9
Adra1b (adrenergic receptor, alpha 1b) #1 — GFP, % of control = 147 (active); viability (ATP), % of control = 66.5
Adra1b (adrenergic receptor, alpha 1b) #2 — GFP, % of control = 108; viability (ATP), % of control = 71
Adra1b (adrenergic receptor, alpha 1b) #3 — GFP, % of control = 61.9; viability (ATP), % of control = 57
4933440M02Rik (RIKEN cDNA 4933440M02 gene) #1 — GFP, % of control = 106; viability (ATP), % of control = 75.5
4933440M02Rik (RIKEN cDNA 4933440M02 gene) #2 — GFP, % of control = 101; viability (ATP), % of control = 109
4933440M02Rik (RIKEN cDNA 4933440M02 gene) #3 — GFP, % of control = 78.6; viability (ATP), % of control = 102
